# At least one read-out could not be matched to a standard name with certainty.
# Assay: Aqueous solubility of Dabigatran etexilate in presence of solubility enhancers
# Type: physicochemical
# From the text: However, based on data presented in Table I, TPGS (tocopherol polyethylene glycol succinate) would be expected to be a poor solubilizer by one skilled in the art. […] The present invention provides pharmaceutical compositions and method of administration of Dabigatran etexilate to overcome the clinical limitations posed by gastrointestinal delivery, specifically by increasing the solubility of Dabigatran etexilate, while maintaining it in its most bioavailable form to ascertain an effective transport through the oral mucous membranes so it effectively can exert its anticoagulant activity. We have observed that the use of pharmaceutical solubilizers such as d-alpha Tocopherol polyethylene glycol succinate (TPGS) and Polysorbate 80 improved the solubility up to 5-10 mg/mL. Without being bound to any specific mechanism, the enhanced solubility and dissolution of Dabigatran etexilate, when co-formulated with TPGS may likely be due to ability of TPGS to inhibit precipitation and maintain supersaturation of dabigatran free base in the formulation microenvironment during dissolution. Pharmaceutical co-solvents such as Polyethylene Glycol 400 (PEG 400) and Glycerol improved the solubility compared to water alone, but the solubility was still<0.1 mg/mL.
substance,measurement,setting,value
Dabigatran etexilate,Solubility improvement in water,"5% w/v TPGS, physiological conditions pH 4.5-7.4",up to 0.4 mg/mL
same,Solubility improved by pharmaceutical solubilizers,TPGS and Polysorbate 80,5 to 10 mg/mL

# Reference: patent US20190008843A1, “PHARMACEUTICAL COMPOSITIONS FOR ON DEMAND ANTICOAGULANT THERAPY” (Kenox Pharmaceuticals Inc, priority 2016, published 2019)
